Source: the supplement of paper PMC12819154, “High-throughput peptide-centric local stability assay extends protein–ligand identification to membrane proteins, tissues and bacteria” (Nature Structural & Molecular Biology, 2025)
This is one part of the list. Most values lie at the level of the controls, where differences are scatter.

Amino acid sequences for entries named in this document (tags omitted). A change or cut given only in a name is not applied to a line headed by its entry.
UniProt Q8IYD1, whole entry: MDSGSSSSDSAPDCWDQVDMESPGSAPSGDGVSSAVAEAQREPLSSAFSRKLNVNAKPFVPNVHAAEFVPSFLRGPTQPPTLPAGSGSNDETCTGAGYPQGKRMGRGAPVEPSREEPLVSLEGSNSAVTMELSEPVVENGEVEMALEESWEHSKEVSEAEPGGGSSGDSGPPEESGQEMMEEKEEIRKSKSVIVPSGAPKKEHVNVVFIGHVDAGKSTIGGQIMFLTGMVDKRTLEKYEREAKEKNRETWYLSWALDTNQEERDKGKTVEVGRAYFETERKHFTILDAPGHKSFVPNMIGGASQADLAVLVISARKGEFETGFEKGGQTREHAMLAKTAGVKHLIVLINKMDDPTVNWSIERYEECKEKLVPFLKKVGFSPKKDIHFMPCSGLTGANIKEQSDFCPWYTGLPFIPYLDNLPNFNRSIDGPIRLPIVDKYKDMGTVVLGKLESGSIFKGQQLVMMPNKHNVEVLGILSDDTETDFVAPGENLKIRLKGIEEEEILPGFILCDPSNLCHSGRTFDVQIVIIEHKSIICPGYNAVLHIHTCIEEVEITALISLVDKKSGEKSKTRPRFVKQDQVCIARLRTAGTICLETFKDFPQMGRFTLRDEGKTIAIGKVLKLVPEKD
UniProt Q8N1F8: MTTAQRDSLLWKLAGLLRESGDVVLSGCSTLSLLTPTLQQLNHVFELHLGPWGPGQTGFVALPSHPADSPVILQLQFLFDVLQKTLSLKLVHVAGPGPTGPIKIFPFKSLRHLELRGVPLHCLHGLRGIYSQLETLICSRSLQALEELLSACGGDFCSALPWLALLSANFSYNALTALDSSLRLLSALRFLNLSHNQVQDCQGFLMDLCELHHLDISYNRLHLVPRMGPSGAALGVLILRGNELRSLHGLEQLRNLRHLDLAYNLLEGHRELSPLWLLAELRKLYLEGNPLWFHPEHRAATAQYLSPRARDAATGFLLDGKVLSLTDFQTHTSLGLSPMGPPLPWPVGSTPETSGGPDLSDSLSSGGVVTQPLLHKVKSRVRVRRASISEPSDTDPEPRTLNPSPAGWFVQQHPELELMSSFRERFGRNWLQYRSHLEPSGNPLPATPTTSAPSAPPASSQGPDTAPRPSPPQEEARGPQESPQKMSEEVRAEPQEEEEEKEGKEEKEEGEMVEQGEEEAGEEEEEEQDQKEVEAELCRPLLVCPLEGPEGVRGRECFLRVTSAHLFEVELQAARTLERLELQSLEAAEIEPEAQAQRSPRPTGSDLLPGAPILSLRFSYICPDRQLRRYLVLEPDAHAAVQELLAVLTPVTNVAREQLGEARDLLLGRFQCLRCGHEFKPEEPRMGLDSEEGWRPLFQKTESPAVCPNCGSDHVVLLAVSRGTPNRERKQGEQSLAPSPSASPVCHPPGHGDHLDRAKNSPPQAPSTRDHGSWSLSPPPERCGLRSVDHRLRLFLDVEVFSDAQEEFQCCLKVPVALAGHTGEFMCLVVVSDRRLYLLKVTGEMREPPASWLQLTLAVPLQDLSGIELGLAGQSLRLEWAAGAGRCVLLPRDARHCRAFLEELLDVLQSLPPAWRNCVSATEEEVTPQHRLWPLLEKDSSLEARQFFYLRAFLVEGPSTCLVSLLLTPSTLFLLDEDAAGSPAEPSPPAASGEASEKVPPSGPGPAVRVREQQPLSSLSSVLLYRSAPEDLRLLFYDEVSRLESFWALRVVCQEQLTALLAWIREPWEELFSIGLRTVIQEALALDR
UniProt Q8IXZ2: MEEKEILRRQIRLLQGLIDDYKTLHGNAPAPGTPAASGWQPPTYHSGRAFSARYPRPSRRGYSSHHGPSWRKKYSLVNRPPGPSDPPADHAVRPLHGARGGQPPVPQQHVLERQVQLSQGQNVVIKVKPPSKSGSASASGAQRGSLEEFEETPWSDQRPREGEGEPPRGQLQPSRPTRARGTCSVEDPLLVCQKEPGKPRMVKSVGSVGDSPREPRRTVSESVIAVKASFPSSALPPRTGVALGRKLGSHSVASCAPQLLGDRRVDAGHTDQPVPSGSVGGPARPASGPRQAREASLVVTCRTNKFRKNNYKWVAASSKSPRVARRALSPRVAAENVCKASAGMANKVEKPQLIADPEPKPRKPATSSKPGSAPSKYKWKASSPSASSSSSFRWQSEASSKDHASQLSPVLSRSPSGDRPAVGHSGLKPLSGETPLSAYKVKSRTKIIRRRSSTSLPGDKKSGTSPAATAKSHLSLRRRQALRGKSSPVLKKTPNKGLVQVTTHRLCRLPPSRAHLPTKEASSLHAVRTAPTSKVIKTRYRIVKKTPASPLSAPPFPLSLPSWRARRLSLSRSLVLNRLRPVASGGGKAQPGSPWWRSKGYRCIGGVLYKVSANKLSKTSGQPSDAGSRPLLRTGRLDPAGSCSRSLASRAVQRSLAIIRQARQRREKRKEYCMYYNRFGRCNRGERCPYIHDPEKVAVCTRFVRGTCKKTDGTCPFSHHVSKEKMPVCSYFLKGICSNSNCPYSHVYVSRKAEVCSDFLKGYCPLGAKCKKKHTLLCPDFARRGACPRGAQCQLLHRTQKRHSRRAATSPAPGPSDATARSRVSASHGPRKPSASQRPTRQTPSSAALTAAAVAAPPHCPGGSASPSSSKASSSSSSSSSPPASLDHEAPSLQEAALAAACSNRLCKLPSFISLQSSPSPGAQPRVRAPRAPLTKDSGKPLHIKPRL
UniProt Q8IWU2: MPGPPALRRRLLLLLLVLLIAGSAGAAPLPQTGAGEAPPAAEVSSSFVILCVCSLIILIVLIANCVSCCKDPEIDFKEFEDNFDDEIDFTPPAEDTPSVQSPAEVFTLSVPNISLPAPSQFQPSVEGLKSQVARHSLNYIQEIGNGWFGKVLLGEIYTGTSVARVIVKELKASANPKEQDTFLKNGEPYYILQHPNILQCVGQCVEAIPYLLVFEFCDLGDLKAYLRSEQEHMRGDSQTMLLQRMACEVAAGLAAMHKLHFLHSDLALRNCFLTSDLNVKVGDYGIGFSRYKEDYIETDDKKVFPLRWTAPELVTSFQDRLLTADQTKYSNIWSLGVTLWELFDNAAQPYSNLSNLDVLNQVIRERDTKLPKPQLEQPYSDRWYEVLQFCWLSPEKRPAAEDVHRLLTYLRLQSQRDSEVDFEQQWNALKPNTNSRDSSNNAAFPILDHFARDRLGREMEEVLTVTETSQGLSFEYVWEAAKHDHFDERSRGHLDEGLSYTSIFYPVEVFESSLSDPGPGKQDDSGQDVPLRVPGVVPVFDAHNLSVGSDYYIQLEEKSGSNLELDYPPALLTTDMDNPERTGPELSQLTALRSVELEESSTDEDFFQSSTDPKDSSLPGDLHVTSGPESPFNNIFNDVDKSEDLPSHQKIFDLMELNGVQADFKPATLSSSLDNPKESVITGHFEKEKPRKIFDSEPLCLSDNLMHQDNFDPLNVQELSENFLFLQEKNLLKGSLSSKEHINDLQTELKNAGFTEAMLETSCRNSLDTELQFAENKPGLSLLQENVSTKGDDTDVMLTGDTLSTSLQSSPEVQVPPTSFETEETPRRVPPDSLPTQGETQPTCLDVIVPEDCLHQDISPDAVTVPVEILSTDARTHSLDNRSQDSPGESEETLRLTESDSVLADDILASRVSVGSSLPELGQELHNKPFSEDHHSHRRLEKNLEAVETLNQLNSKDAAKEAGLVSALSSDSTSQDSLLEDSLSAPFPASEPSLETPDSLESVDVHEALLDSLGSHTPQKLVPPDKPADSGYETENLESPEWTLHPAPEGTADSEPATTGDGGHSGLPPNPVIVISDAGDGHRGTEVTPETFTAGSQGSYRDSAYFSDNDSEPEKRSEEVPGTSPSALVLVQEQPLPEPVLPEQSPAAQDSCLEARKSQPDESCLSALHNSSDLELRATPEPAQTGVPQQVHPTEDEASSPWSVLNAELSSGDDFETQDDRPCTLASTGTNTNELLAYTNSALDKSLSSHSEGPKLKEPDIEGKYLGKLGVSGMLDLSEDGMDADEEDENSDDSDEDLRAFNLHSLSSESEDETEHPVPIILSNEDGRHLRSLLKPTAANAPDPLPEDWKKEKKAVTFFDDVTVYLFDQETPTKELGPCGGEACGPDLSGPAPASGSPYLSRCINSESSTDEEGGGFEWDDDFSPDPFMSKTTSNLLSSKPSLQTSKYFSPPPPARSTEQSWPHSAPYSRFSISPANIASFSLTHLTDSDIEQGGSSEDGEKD
UniProt Q86WA8: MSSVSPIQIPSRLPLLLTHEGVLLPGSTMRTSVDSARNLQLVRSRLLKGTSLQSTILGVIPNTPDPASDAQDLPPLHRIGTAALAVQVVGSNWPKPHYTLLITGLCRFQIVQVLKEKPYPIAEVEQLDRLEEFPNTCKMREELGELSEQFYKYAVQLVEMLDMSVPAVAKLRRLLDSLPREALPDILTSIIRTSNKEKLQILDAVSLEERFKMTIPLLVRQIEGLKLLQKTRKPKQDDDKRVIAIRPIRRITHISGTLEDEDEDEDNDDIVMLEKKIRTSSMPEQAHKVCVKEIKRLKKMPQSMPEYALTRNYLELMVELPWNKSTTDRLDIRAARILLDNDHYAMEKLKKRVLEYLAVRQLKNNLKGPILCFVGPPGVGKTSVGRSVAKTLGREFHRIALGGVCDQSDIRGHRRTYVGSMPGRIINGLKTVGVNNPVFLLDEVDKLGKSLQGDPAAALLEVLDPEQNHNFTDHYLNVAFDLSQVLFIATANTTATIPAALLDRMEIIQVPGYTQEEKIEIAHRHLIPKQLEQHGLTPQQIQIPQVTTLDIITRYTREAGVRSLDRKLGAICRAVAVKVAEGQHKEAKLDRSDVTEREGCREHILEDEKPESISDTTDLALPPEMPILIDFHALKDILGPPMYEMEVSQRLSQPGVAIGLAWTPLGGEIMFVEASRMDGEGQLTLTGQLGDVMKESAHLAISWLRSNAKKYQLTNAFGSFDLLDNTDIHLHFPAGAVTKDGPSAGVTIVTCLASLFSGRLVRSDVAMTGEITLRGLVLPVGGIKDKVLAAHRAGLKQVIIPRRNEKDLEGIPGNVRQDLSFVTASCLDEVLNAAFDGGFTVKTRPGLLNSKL
UniProt Q8N163, whole entry: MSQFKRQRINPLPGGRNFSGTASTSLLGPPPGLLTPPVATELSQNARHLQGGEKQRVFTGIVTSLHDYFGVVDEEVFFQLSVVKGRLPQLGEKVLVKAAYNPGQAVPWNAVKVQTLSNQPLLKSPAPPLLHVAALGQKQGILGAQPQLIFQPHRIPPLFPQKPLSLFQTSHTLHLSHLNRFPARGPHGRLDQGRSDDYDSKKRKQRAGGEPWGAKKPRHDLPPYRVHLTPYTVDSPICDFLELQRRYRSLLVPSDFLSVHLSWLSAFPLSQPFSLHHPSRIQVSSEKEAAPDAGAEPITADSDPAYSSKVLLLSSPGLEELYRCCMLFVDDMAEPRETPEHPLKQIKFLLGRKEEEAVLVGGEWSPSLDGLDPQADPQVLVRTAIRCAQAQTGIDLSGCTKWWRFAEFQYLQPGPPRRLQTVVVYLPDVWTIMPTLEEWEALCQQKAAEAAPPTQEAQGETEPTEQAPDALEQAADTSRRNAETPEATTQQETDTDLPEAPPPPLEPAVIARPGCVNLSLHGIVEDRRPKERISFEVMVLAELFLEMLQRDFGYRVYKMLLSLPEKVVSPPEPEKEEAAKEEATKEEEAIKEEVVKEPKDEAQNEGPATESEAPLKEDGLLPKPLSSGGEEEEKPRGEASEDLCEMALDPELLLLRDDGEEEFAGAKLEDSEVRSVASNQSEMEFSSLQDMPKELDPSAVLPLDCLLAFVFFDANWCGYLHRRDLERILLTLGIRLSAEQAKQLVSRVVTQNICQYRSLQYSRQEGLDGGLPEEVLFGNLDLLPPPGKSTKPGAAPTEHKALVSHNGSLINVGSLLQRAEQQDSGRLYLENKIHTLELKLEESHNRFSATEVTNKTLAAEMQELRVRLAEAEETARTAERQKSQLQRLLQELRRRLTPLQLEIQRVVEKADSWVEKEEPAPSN
UniProt Q8N344: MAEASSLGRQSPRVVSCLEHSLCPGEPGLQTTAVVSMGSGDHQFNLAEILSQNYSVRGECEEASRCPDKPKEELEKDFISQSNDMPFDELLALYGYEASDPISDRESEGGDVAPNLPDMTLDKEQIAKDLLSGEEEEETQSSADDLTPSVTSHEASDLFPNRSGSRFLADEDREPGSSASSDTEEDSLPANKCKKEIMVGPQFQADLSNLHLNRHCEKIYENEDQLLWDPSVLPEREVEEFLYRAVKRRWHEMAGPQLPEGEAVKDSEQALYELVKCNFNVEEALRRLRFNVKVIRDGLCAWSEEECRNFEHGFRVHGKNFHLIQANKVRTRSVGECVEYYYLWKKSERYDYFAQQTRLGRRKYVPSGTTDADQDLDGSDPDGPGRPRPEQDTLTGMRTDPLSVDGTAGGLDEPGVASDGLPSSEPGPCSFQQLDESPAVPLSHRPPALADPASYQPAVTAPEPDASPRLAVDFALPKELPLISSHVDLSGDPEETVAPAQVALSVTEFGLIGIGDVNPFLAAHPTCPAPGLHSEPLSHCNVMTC

These targets were tested with CN[C@@H]1C[C@H]2O[C@@](C)([C@@H]1OC)n1c3ccccc3c3c4c(c5c6ccccc6n2c5c31)C(=O)NC4 [staurosporine] (assay: log2 fold change of tryptic peptide abundance, ligand vs vehicle (limited proteolysis) (log2 ratio); higher = more trypsin-susceptible (destabilized)). Conditions: ligand concentration: 20 uM; sample: K562 cleared lysate; digestion: 4 min, 22 C (HT-PELSA RT4min, Orbitrap Astral).

Row | Target | log2 fold change
1 | GSPT2 (peptide sequence: DIHFMPCSGLTGANIK, peptide start residue: 384) (UniProt Q8IYD1) | -0.341
2 | STK11IP (peptide sequence: FSYICPDR, peptide start residue: 618) (UniProt Q8N1F8) | 0.229
3 | ZC3H3 (peptide sequence: TSGQPSDAGSRPLLR, peptide start residue: 619) (UniProt Q8IXZ2) | -0.357
4 | LMTK2 (peptide sequence: YFSPPPPAR, peptide start residue: 1448) (UniProt Q8IWU2) | -0.366
5 | LONP2 (peptide sequence: MTIPLLVR, peptide start residue: 213) (UniProt Q86WA8) | 0.0287
6 | CARM1 (peptide sequence: SSNLLDLKNPFFR, peptide start residue: 463) (UniProt Q86X55) | -0.127
7 | ANKLE2 (peptide sequence: TSLPLSPVK, peptide start residue: 263) (UniProt Q86XL3) | 0.185
8 | UniProt Q8N163 (peptide sequence: ETPEHPLK, peptide start residue: 337) | 0.508
9 | MIER2 (peptide sequence: YDYFAQQTR, peptide start residue: 330) (UniProt Q8N344) | -0.175
